According to patent publication US20200216506A1:

Assays:
[1] = molecular target: 3×FLAG-tagged MyD88 allele; experiment: anti-FLAG (M2) co-immunoprecipitation from Myd88-/-/Trif-/- iBMDMs expressing 3×FLAG-MyD88, western blot (FIG. 71B)
[2] = molecular target: 3×FLAG-tagged TRAF6 allele; experiment: anti-FLAG (M2) co-immunoprecipitation from TLR-ligand-stimulated iBMDMs expressing 3×FLAG-TRAF6, western blot (FIG. 69C)
[3] = molecular target: 3×FLAG-tagged TRAF6 allele; experiment: anti-FLAG (M2) co-immunoprecipitation versus control IgG, LPS-stimulated iBMDMs, western blot (FIG. 74B)

| binding [1] | binding [2] | binding [3] | Binder |
| --- | --- | --- | --- |
| binds |  |  | TRAF6 (enzyme, UniProt P70196 1-530, looked up) MSLLNCENSCGSSQSSSDCCAAMAASCSAAVKDDSVSGSASTGNLSSSFMEEIQGYDVEFDPPLESKYECPICLMALREAVQTPCGHRFCKACIIKSIRDAGHKCPVDNEILLENQLFPDNFAKREILSLTVKCPNKGCLQKMELRHLEDHQVHCEFALVNCPQCQRPFQKCQVNTHIIEDCPRRQVSCVNCAVSMAYEEKEIHDQSCPLANIICEYCGTILIREQMPNHYDLDCPTAPIPCTFSVFGCHEKMQRNHLARHLQENTQLHMRLLAQAVHNVNLALRPCDAASPSRGCRPEDPNYEETIKQLESRLVRQDHQIRELTAKMETQSMYVGELKRTIRTLEDKVAEMEAQQCNGIYIWKIGNFGMHLKSQEEERPVVIHSPGFYTGRPGYKLCMRLHLQLPTAQRCANYISLFVHTMQGEYDSHLPWPFQGTIRLTILDQSEALIRQNHEEVMDAKPELLAFQRPTIPRNPKGFGYVTFMHLEALRQGTFIKDDTLLVRCEVSTRFDMGGLRKEGFQPRSTDAGV |
| binds | binds | binds | IRAK2 (enzyme, UniProt Q8CFA1 1-622, looked up) MACYIYQLPSWVLDDLCRNIDTLSEWDWMQFASYVITDLTQLRKIKSMERVQGVSITRELLWWWSMRQATVQQLVDLLCHLELYRAAQIVLSWKPVPESTSPLPAFPEAVKPGAVATSRRNLKDEQEKVRPVKPRSLLDTGPIMAGAQRQRPCEMDAPCSLKTDAPDSPQSKYCSTSTSAPKQERLLGLPGDRLFWSEADVVQATEDFDQSHRISEGTFADIYQGQRNGVAFAFKKLREVAGSSPGSMDRFLQAEMQLCLRCCHANVLPLLGFCTGRQFHSLIYPYMANGSLHDRLWAQGNSDMLPWPQRASICSGLLLAVEHLHSLDIIHSNVKSANVLLDQHLNPKLAHPVAHPHPDNKKTKYTVMRTHLFQASAAYLPEHFIRVGQLTKQVDIFSCGIVLAEVLTGIPAMDKDRSPVYLKDLLLSEIPNSTSSVCSRKTSMGKAVVKEICQRHVEKRAGLLPEACEEAWATAVSVCLRRRNASVEEARVSLAGVEEQLRGQLSLPWSRVSEATGSSSNTPEETDDVDNSSLSVPSLVMMASCPGAASSPLFTGHGAAQPSTSGRQEADSSSEACTGPQTPQNATETSWKIEINEAKRRLMENIVLYKEERLDSSELFGP |

These are yes or no findings as the source states them, for the method shown. Binding seen in cells or lysates may run through a third protein. Binding can be weak; no strength is given.
